Binding data for one molecule are collected here from doi:10.1101/2022.06.15.496240.

These are yes or no findings as the source states them, for the method shown. In cells and extracts the contact can be indirect. Some results given as binding are weak or reduced against the parent protein; the word gives no strength. Tags and fused reporters may be left off the sequences shown.

In the test the target is T1, ASNA-1::GFP (C. elegans) (UniProt P30632).
T1 sequence: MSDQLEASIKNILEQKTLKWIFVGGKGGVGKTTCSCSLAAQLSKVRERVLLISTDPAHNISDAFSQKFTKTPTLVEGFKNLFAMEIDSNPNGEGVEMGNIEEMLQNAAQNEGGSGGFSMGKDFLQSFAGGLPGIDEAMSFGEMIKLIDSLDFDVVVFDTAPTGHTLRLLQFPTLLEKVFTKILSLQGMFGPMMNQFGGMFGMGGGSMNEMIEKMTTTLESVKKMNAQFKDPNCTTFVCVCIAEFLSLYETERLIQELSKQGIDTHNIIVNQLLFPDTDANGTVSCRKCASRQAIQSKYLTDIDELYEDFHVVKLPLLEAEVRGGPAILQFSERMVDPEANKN
Briefly: co-IP.

B1: 3xFlag::ENPL-1 (protein, UniProt Q22235 24-760)
chain: EDEIEDAPKETKEETREEDSIKLDGLSVSQIKELRSKAEKHEFQAEVNRMMKLIINSLYRNKEIFLRELISNASDALDKIRLLSLTDPEQLRETEEMSVKIKADRENRLLHITDTGVGMTRQDLINNLGTIARSGTSEFLSKLMDTATSSDQQQDLIGQFGVGFYAAFLVADRVVVTTKNNDDDQYIWESDSASFTISKDPRGNTLKRGTQITLYLKEEAADFLEPDTLKNLVHKYSQFINFDIFLWQSKTEMVEEAVEEEPATTEDGAVEEEKEEKKTKKVEKTTWDWEKVNNVKPIWMRKPNQVEEDEYKQFYKSITKDSEEPLSHVHFSAEGEVSFRSILYVPKKSPNDMFQNYGKVIENIKLYVRRVFITDDFADMLPKYLSFIRGIVDSDDLPLNVSRENLQQHKLLKVIKKKLVRKVLDMLKKLDGAQFDDFWSEFSTNIKLGVMEDPSNRMRLAKLLRFQSSNDADKTTTLAAYVERMKEKQDAIYYMAGTSRKEVETSPFVERLIAKGYEVLFLTEAVDEYCIQAMPEYESKKFQNVAKEGVTIDDGEKAKEAHKGLEEEFKPLTDWLKETALKDLIEKAVVSQRLVKSPSALVASSYGWSGNMERIMKSQAYAKAKDPTQDFYATQKKTFEINPRHPVIKELLKRVTASEEDTTAASTAKLLFETATLRSGFSLQDQVGFADRIEAVLRQSLDVSQDAQVETEQHIEEAEPEPEAAEETTIEEEHSEL
On to B1, for which the binding result was “binds”.
